Measured values as given in PMC8546589.
No constants are given. Whether binding was seen depends on the method and setting. In cells and extracts the contact can be indirect. Here binding means that the protein was enriched with, or labelled near, the bait; the list need not be complete. For part of these data: Sequences can lack the tags named with a protein.

Sequences of proteins named here, by UniProt entry; tags and fusion partners are left off. A change or cut given only in a name is not applied to a line headed by its entry.
UniProt C4LTS8: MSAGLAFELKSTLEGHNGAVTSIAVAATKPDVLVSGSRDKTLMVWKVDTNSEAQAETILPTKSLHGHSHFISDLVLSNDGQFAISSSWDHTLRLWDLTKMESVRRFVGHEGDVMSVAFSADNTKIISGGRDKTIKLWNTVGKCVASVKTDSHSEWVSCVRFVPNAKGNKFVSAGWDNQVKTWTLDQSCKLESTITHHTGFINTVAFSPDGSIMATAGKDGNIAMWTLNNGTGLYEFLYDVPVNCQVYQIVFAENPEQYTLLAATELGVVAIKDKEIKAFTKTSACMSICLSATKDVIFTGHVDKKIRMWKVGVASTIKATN

Columns and labels:
[1] = target: T1, Myc-NAP12 (E. histolytica) (UniProt C4M8H9); test: affinity purification with mass spectrometry; anti-c-Myc agarose IP from whole-cell lysate of E. histolytica lines overexpressing Myc-NAP07, Myc-NAP12, Myc-EBP-1, Myc-GNB2L1 or Myc-Tudor-like protein; LC-MS/MS in duplicate; hits in both replicates and exclusive against the Luc control
T1 sequence: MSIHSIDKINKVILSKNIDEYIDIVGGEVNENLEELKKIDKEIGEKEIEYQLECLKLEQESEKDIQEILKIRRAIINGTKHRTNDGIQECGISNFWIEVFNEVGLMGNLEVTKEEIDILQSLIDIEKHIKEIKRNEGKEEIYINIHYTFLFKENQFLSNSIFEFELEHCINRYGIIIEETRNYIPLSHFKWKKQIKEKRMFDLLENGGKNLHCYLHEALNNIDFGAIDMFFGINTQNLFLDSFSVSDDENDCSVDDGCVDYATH

[2] = target: Myc-GNB2L1 (E. histolytica) (UniProt C4LTS8); test: as above
[3] = target: T2, Myc-NAP07 (E. histolytica) (UniProt C4M608); test: as above
T2 sequence: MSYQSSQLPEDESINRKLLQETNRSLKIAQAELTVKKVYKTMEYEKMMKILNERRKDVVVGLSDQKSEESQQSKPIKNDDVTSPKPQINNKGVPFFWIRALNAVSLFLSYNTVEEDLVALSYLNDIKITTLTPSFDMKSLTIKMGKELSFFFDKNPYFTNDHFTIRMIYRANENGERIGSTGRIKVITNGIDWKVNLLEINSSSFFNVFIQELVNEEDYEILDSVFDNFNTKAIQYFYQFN

[4] = target: T3, Myc-EBP-1 (E. histolytica) (UniProt C4M5C4); test: as above
T3 sequence: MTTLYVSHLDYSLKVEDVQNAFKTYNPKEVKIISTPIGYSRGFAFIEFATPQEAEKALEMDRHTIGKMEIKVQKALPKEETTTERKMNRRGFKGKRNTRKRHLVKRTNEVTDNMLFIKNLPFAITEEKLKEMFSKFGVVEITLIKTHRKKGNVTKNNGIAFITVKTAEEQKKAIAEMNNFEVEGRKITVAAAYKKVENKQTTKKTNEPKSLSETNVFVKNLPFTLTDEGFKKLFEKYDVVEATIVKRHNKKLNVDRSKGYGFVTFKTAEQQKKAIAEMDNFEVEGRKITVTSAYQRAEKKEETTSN

[5] = target: T4, Myc-EhRdRP2 (E. histolytica) (UniProt C4M631); test: affinity purification with mass spectrometry; anti-c-Myc agarose IP from whole-cell lysate of E. histolytica lines overexpressing the Myc-tagged bait (EhAgo2-2 WT, its two mutants, EhRdRP1, EhRdRP2), 2 h at 4°C, six low-stringency washes; LC-MS/MS in triplicate; nonribosomal hits in at least 2 of 3 data sets, exclusive or ≥3-fold enriched against the Luc control
T4 sequence: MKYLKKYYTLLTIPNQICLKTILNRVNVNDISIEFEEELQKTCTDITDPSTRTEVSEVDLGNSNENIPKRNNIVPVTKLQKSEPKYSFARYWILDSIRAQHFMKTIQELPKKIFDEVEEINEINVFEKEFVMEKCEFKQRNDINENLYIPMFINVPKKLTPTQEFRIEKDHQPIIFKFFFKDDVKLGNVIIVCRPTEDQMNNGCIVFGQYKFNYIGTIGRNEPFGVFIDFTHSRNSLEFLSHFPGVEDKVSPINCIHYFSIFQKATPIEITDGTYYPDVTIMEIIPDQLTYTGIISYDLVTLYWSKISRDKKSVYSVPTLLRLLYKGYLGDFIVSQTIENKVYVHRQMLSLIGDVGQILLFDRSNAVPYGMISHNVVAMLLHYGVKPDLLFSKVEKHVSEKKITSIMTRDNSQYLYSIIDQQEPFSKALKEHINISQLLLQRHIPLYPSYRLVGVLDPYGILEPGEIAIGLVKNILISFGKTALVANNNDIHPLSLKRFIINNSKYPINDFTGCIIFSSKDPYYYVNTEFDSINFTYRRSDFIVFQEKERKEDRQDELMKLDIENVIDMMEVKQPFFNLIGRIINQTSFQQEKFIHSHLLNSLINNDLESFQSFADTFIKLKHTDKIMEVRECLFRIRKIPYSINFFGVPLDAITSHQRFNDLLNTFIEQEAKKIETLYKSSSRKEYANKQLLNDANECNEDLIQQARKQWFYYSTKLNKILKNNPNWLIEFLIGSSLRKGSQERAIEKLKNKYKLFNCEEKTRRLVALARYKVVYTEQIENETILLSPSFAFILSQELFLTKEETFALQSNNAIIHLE

[6] = target: T5, Myc-EhRdRP1 (E. histolytica) (UniProt C4M6W7); test: as above
T5 sequence: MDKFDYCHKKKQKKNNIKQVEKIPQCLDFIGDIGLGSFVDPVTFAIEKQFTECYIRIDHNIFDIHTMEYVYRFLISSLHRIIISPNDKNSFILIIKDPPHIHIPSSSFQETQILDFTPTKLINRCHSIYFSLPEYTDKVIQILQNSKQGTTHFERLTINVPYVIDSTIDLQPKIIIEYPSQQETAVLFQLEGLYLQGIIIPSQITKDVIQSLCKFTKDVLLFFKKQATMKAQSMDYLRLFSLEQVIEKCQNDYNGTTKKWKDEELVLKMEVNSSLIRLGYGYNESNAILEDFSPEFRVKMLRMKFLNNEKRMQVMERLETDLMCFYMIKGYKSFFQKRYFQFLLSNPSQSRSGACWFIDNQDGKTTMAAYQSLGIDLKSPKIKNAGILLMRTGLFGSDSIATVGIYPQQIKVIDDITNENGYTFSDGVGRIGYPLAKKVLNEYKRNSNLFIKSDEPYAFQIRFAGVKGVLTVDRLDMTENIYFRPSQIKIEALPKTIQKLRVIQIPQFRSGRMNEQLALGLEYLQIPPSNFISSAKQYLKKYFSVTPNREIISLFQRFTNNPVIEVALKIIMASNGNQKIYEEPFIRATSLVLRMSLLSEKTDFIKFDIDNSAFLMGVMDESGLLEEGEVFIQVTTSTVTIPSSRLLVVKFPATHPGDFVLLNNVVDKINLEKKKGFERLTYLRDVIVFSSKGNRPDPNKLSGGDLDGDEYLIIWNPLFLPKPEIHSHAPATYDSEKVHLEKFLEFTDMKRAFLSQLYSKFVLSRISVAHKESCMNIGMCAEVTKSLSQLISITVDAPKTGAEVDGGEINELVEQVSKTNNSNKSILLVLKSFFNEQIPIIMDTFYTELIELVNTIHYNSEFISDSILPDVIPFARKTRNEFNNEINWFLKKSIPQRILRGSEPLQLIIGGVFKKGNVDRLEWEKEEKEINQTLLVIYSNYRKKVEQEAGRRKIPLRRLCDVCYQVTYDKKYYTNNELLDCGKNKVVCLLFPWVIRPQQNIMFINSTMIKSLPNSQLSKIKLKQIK

Measured: binding

B1: Tudor-like protein (endogenous) (protein, UniProt C4M0A8 1-861)
chain: MPAQNTQKKDLSKKVEKKPESEPKKEKKTFTAFVAKVKSNNSLTLSSKKDDKRSTVVLAYVDLPRYDAKEKKEEAFAYETNEILRKKLVTGKEVKFEVVSEHQGIPKAVVPFVRKENIVCTLIESGYASLKIKGKGKEFSQYFDAEQKAKDSHRGIFSEDMIKIAKKRPENIFFNEKEISELKGKTIQGHIKRVEAPSHYIIEDTNRRRFKVVLYGVNQMLRYNTEKDVFDFDDDAKDAMKYINRSFNQRDVTVKVIETSQRVAYAQLSVEKKDVAEELLRSGFVVCSKLENATEEIKQKYQAAEKEAKKEKKARWTEFDQAAEDAIIAKRQQRLKELEDRRKNAKIISGAEIIYIGNHIKAKKGNEEYNIHLASVRPVFKKNDKEFNDLVQFRIKECLRKLIVGKKFEAKECYKRSFTKEDKTIEEVFYDVYASGKNVAVTLIKEGLVVLEKTRDEFYQSFDYKLLSETPKGEYKEKVVTQYPAEKRESIKDVFLNNSFNCIVERVINVCKYVIYIPEKDCRMTVVLSHCRIPRDDENEELKKFNEESKAAVRALFGLNEVTVDFREFFKGNFCVDILSKKFDLCDLVLSKAYAQFSGRDIPENIAEMKENQEGIYKFAGAKKEGESKPVRPVKVVKEVHREIKFGEGKNVYITGFDGSMIYYYEKVADAKFIEELSNKLKKCNKGSVEQKDGQKCVVEIKGVQYRAIITKAVPTANVVKCIDTGAVIVCGKNKLKPLKEEYENIEVTVKSIALAGVKTLVRGKDVDFDAMINAVSSFFNKEATMFVATINDKEVAKVVVGDVCINNMLIEEGLSILDRFFNDNSDWGRAMTSAQSAAKDKHLNVWRYGEIDDDEEKDKH
binds: all assays above
